Laboratory results from patent US20220074941A1, “HSP90 COMBINATION THERAPY” (Sloan-Kettering Institute for Cancer Research, priority 2011, published 2022).

Key:
[1] = tested on: Hsp90 complexes in Mia-PaCa-2 cell extract; experiment: Nano-LC-MS/MS of PU-beads pull-downs; format: binding, human; settings: protein identified in PU-beads pull-down of Mia-Paca 2 extract; QSTAR-Elite QTof MS
How it was run: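 They came from PU-bead pull-downs of pre-cleared lysates (control beads, overnight, 4 °C), eluted by boiling in 2% SDS, gel-separated and run by data-dependent nano-ESI QTof MS/MS.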

[2] = tested on: Hsp90 complexes in K562 cell extract; experiment: Nano-LC-MS/MS of PU-beads pull-downs; format: binding; settings: protein identified in PU-beads pull-down of K562 extract, QSTAR-Elite QTof MS
How it was run: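 Proteins were identified by data-dependent nano LC-MS/MS (QTof, ESI) and Mascot searching (p<0.05), then reported as spectral counts and coverage via Scaffold. Inputs were PU-bead versus control-bead pull-downs from lysate pre-cleared with control beads overnight at 4 °C, eluted by boiling in 2% SDS.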

Molecule | Number of Assigned Spectra, Mia-Paca 2 [1] | Number of Assigned Spectra, K562 Prep 1 [2] | Number of Assigned Spectra, K562 Prep 2 [2]
MYBBP1A (protein, UniProt Q9BQG0 1-1328, looked up) Myb-binding protein 1A: MESRDPAQPMSPGEATQSGARPADRYGLLKHSREFLDFFWDIAKPEQETRLAATEKLLEYLRGRPKGSEMKYALKRLITGLGVGRETARPCYSLALAQLLQSFEDLPLCSILQQIQEKYDLHQVKKAMLRPALFANLFGVLALFQSGRLVKDQEALMKSVKLLQALAQYQNHLQEQPRKALVDILSEVSKATLQEILPEVLKADLNIILSSPEQLELFLLAQQKVPSKLKKLVGSVNLFSDENVPRLVNVLKMAASSVKKDRKLPAIALDLLRLALKEDKFPRFWKEVVEQGLLKMQFWPASYLCFRLLGAALPLLTKEQLHLVMQGDVIRHYGEHVCTAKLPKQFKFAPEMDDYVGTFLEGCQDDPERQLAVLVAFSSVTNQGLPVTPTFWRVVRFLSPPALQGYVAWLRAMFLQPDLDSLVDFSTNNQKKAQDSSLHMPERAVFRLRKWIIFRLVSIVDSLHLEMEEALTEQVARFCLFHSFFVTKKPTSQIPETKHPFSFPLENQAREAVSSAFFSLLQTLSTQFKQAPGQTQGGQPWTYHLVQFADLLLNHSHNVTTVTPFTAQQRQAWDRMLQTLKELEAHSAEARAAAFQHLLLLVGIHLLKSPAESCDLLGDIQTCIRKSLGEKPRRSRTKTIDPQEPPWVEVLVEILLALLAQPSHLMRQVARSVFGHICSHLTPRALQLILDVLNPETSEDENDRVVVTDDSDERRLKGAEDKSEEGEDNRSSESEEESEGEESEEEERDGDVDQGFREQLMTVLQAGKALGGEDSENEEELGDEAMMALDQSLASLFAEQKLRIQARRDEKNKLQKEKALRRDFQIRVLDLVEVLVTKQPENALVLELLEPLLSIIRRSLRSSSSKQEQDLLHKTARIFTHHLCRARRYCHDLGERAGALHAQVERLVQQAGRQPDSPTALYHFNASLYLLRVLKGNTAEGCVHETQEKQKAGTDPSHMPTGPQAASCLDLNLVTRVYSTALSSFLTKRNSPLTVPMFLSLFSRHPVLCQSLLPILVQHITGPVRPRHQACLLLQKTLSMREVRSCFEDPEWKQLMGQVLAKVTENLRVLGEAQTKAQHQQALSSLELLNVLFRTCKHEKLTLDLTVLLGVLQGQQQSLQQGAHSTGSSRLHDLYWQAMKTLGVQRPKLEKKDAKEIPSATQSPISKKRKKKGFLPETKKRKKRKSEDGTPAEDGTPAATGGSQPPSMGRKKRNRTKAKVPAQANGTPTTKSPAPGAPTRSPSTPAKSPKLQKKNQKPSQVNGAPGSPTEPAGQKQHQKALPKKGVLGKSPLSALARKKARLSLVIRSPSLLQSGAKKKAQVRKAGKP | 29 | 4 | 4
AMBRA1 (protein, UniProt Q9C0C7 1-1298, looked up) Activating molecule in …: MKVVPEKNAVRILWGRERGARAMGAQRLLQELVEDKTRWMKWEGKRVELPDSPRSTFLLAFSPDRTLLASTHVNHNIYITEVKTGKCVHSLIGHRRTPWCVTFHPTISGLIASGCLDGEVRIWDLHGGSESWFTDSNNAIASLAFHPTAQLLLIATANEIHFWDWSRREPFAVVKTASEMERVRLVRFDPLGHYLLTAIVNPSNQQGDDEPEIPIDGTELSHYRQRALLQSQPVRRTPLLHNFLHMLSSRSSGIQVGEQSTVQDSATPSPPPPPPQPSTERPRTSAYIRLRQRVSYPTAECCQHLGILCLCSRCSGTRVPSLLPHQDSVPPASARATTPSFSFVQTEPFHPPEQASSTQQDQGLLNRPSAFSTVQSSTAGNTLRNLSLGPTRRSLGGPLSSHPSRYHREIAPGLTGSEWTRTVLSLNSRSEAESMPPPRTSASSVSLLSVLRQQEGGSQASVYTSATEGRGFPASGLATESDGGNGSSQNNSGSIRHELQCDLRRFFLEYDRLQELDQSLSGEAPQTQQAQEMLNNNIESERPGPSHQPTPHSSENNSNLSRGHLNRCRACHNLLTFNNDTLRWERTTPNYSSGEASSSWQVPSSFESVPSSGSQLPPLERTEGQTPSSSRLELSSSASPQEERTVGVAFNQETGHWERIYTQSSRSGTVSQEALHQDMPEESSEEDSLRRRLLESSLISLSRYDGAGSREHPIYPDPARLSPAAYYAQRMIQYLSRRDSIRQRSMRYQQNRLRSSTSSSSSDNQGPSVEGTDLEFEDFEDNGDRSRHRAPRNARMSAPSLGRFVPRRFLLPEYLPYAGIFHERGQPGLATHSSVNRVLAGAVIGDGQSAVASNIANTTYRLQWWDFTKFDLPEISNASVNVLVQNCKIYNDASCDISADGQLLAAFIPSSQRGFPDEGILAVYSLAPHNLGEMLYTKRFGPNAISVSLSPMGRYVMVGLASRRILLHPSTEHMVAQVFRLQQAHGGETSMRRVFNVLYPMPADQRRHVSINSARWLPEPGLGLAYGTNKGDLVICRPEALNSGVEYYWDQLNETVFTVHSNSRSSERPGTSRATWRTDRDMGLMNAIGLQPRNPATSVTSQGTQTLALQLQNAETQTEREVPEPGTAASGPGEGEGSEYGASGEDALSRIQRLMAEGGMTAVVQREQSTTMASMGGFGNNIIVSHRIHRSSQTGTEPGAAHTSSPQPSTSRGLLPEAGQLAERGLSPRTASWDQPGTPGREPTQPTLPSSSPVPIPVSLPSAEGPTLHCELTNNNHLLDGGSSRGDAAGPRGEPRNR | 1 | 2 | 2
TNFAIP2 (protein, UniProt Q03169 1-654, looked up) Tumor necrosis factor …: MSEASSEDLVPPLEAGAAPYREEEEAAKKKKEKKKKSKGLANVFCVFTKGKKKKGQPSSAEPEDAAGSRQGLDGPPPTVEELKAALERGQLEAARPLLALERELAAAAAAGGVSEEELVRRQSKVEALYELLRDQVLGVLRRPLEAPPERLRQALAVVAEQEREDRQAAAAGPGTSGLAATRPRRWLQLWRRGVAEAAEERMGQRPAAGAEVPESVFLHLGRTMKEDLEAVVERLKPLFPAEFGVVAAYAESYHQHFAAHLAAVAQFELCERDTYMLLLWVQNLYPNDIINSPKLVGELQGMGLGSLLPPRQIRLLEATFLSSEAANVRELMDRALELEARRWAEDVPPQRLDGHCHSELAIDIIQITSQAQAKAESITLDLGSQIKRVLLVELPAFLRSYQRAFNEFLERGKQLTNYRANVIANINNCLSFRMSMEQNWQVPQDTLSLLLGPLGELKSHGFDTLLQNLHEDLKPLFKRFTHTRWAAPVETLENIIATVDTRLPEFSELQGCFREELMEALHLHLVKEYIIQLSKGRLVLKTAEQQQQLAGYILANADTIQHFCTQHGSPATWLQPALPTLAEIIRLQDPSAIKIEVATYATCYPDFSKGHLSAILAIKGNLSNSEVKRIRSILDVSMGAQEPSRPLFSLIKVG | 0 | 2 | 1
PICALM (protein, UniProt Q13492 2-652, looked up) Phosphatidylinositol-binding …: SGQSLTDRITAAQHSVTGSAVSKTVCKATTHEIMGPKKKHLDYLIQCTNEMNVNIPQLADSLFERTTNSSWVVVFKSLITTHHLMVYGNERFIQYLASRNTLFNLSNFLDKSGLQGYDMSTFIRRYSRYLNEKAVSYRQVAFDFTKVKRGADGVMRTMNTEKLLKTVPIIQNQMDALLDFNVNSNELTNGVINAAFMLLFKDAIRLFAAYNEGIINLLEKYFDMKKNQCKEGLDIYKKFLTRMTRISEFLKVAEQVGIDRGDIPDLSQAPSSLLDALEQHLASLEGKKIKDSTAASRATTLSNAVSSLASTGLSLTKVDEREKQAALEEEQARLKALKEQRLKELAKKPHTSLTTAASPVSTSAGGIMTAPAIDIFSTPSSSNSTSKLPNDLLDLQQPTFHPSVHPMSTASQVASTWGDPFSATVDAVDDAIPSLNPFLTKSSGDVHLSISSDVSTFTTRTPTHEMFVGFTPSPVAQPHPSAGLNVDFESVFGNKSTNVIVDSGGFDELGGLLKPTVASQNQNLPVAKLPPSKLVSDDLDSSLANLVGNLGIGNGTTKNDVNWSQPGEKKLTGGSNWQPKVAPTTAWNAATMAPPVMAYPATTPTGMIGYGIPPQMGSVPVMTQPTLIYSQPVMRPPNPFGPVSGAQIQFM | 0 | 1 | 7
ATG5 (protein, UniProt Q9H1Y0 1-275, looked up) Autophagy protein 5: MTDDKDVLRDVWFGRIPTCFTLYQDEITEREAEPYYLLLPRVSYLTLVTDKVKKHFQKVMRQEDISEIWFEYEGTPLKWHYPIGLLFDLLASSSALPWNITVHFKSFPEKDLLHCPSKDAIEAHFMSCMKEADALKHKSQVINEMQKKDHKQLWMGLQNDRFDQFWAINRKLMEYPAEENGFRYIPFRIYQTTTERPFIQKLFRPVAADGQLHTLGDLLKEVCPSAIDPEDGEKKNQVMIHGIEPMLETPLQWLSEHLSYPDNFLHISIIPQPTD | 0 | 2 | 1
MCM5 (protein, UniProt P33992 2-734, looked up) DNA replication licensing …: SGFDDPGIFYSDSFGGDAQADEGQARKSQLQRRFKEFLRQYRVGTDRTGFTFKYRDELKRHYNLGEYWIEVEMEDLASFDEDLADYLYKQPAEHLQLLEEAAKEVADEVTRPRPSGEEVLQDIQVMLKSDASPSSIRSLKSDMMSHLVKIPGIIIAASAVRAKATRISIQCRSCRNTLTNIAMRPGLEGYALPRKCNTDQAGRPKCPLDPYFIMPDKCKCVDFQTLKLQELPDAVPHGEMPRHMQLYCDRYLCDKVVPGNRVTIMGIYSIKKFGLTTSRGRDRVGVGIRSSYIRVLGIQVDTDGSGRSFAGAVSPQEEEEFRRLAALPNVYEVISKSIAPSIFGGTDMKKAIACLLFGGSRKRLPDGLTRRGDINLLMLGDPGTAKSQLLKFVEKCSPIGVYTSGKGSSAAGLTASVMRDPSSRNFIMEGGAMVLADGGVVCIDEFDKMREDDRVAIHEAMEQQTISIAKAGITTTLNSRCSVLAAANSVFGRWDETKGEDNIDFMPTILSRFDMIFIVKDEHNEERDVMLAKHVITLHVSALTQTQAVEGEIDLAKLKKFIAYCRVKCGPRLSAEAAEKLKNRYIIMRSGARQHERDSDRRSSIPITVRQLEAIVRIAEALSKMKLQPFATEADVEEALRLFQVSTLDAALSGTLSGVEGFTSQEDQEMLSRIEKQLKRRFAIGSQVSEHSIIKDFTKQKYPEHAIHKVLQLMLRRGEIQHRMQRKVLYRLK | 2 | 24 | 18
RBBP7 (protein, UniProt Q16576 2-425, looked up) Histone-binding protein RBBP7: ASKEMFEDTVEERVINEEYKIWKKNTPFLYDLVMTHALQWPSLTVQWLPEVTKPEGKDYALHWLVLGTHTSDEQNHLVVARVHIPNDDAQFDASHCDSDKGEFGGFGSVTGKIECEIKINHEGEVNRARYMPQNPHIIATKTPSSDVLVFDYTKHPAKPDPSGECNPDLRLRGHQKEGYGLSWNSNLSGHLLSASDDHTVCLWDINAGPKEGKIVDAKAIFTGHSAVVEDVAWHLLHESLFGSVADDQKLMIWDTRSNTTSKPSHLVDAHTAEVNCLSFNPYSEFILATGSADKTVALWDLRNLKLKLHTFESHKDEIFQVHWSPHNETILASSGTDRRLNVWDLSKIGEEQSAEDAEDGPPELLFIHGGHTAKISDFSWNPNEPWVICSVSEDNIMQIWQMAENIYNDEESDVTTSELEGQGS | 3 | 5 | 4
